Laboratory results taken from patent US20250002576A1.
Results are given in words; binding and its absence hold for the method and conditions named. Binding can be weak; no strength is given. Values belong to the binder of their own block, whether it stands above or below them.

Target: mouse Claudin 18.2 (mouse)
Experiment: flow cytometry screening

binding: binds
B1: YU574-D11 (scFv as screened) (scFv, V domains shown)
VH: QVQLVQSGGGLVQPGGSLRLSCAASGFTFSSYAMSWVRQAPGKGLEWVSAISGSGGSTYYADSVKGRFTISRDNSKNTLYLQMNSLRAEDTAVYYCAGGANGFDPWGQGTLVTVSS
VL: QSVLTQPPSVSGAPGQRVTISCTGSSSNIGAGYDVHWYQQLPGTAPKLLIYGNSNRPSGVPDRFSGSKSGTSASLAITGLQAEDEADYYCQSYDSSLSGLVFGGGTKLTVL

binding: binds
B2: YU577-E08 (scFv as screened) (scFv, V domains shown)
VH: QVQLVQSGAEVKKPGASVKVSCKASGYTFTSYYMHWVRQAPGQGLEWMGIINPSGGSTSYAQKFQGRVTMTRDTSTSTVYMELSSLRSEDTAVYYCATRQFDYWGQGTLVTVSS
VL: QSVLTQPPSVSAAPGQKVTISCSGSSSNIGNNYVSWYQQLPGTAPKLLIYENNKRPSGIPDRFSGSKSGTSATLGITGLQTGDEADYYCGTWDSSLSAAVFGGGTKVTVL
